This assay deals with T1, synthetic peptide corresponding to the coiled-coil motif of mouse EPG5 (mouse).
T1 sequence (peptide, biotin on the N-terminus): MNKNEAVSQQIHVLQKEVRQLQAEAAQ
Briefly: affinity purification with mass spectrometry; 1 mg biotinylated EPG5 coiled-coil peptide incubated with ES cell lysates, precipitated with anti-biotin beads, washed with lysis buffer, SDS-PAGE, in-gel digestion, LC-MS/MS; only the target purified.

No constants are given. Whether binding was seen depends on the method and setting. Binding seen in cells or lysates may run through a third protein. These calls come from enrichment with a bait or labelling near it, and not all partners need be listed.

B1: USP8 (endogenous, mouse ESCs) (enzyme, UniProt Q80U87 1-1080)
chain: MPAVASVPKELYLSSSLKDLNKKTEVKPEKTSTKNYIHSAQKIFKTAEECRLDRDEERAYVLYMKYVAVYNLIKKRPDFKQQQDYYLSILGPANIKKAIEEAERLSESLKLRYEEAEVRKQLEEKDRREEEQLQQQKRQEMGREDSGAAAKRSVENLLDSKTKTQRINGEKSEGAAAAERGAITAKELYTMMMDKNTSLIIMDARKIQDYQHSCILDSLSVPEEAISPGVTASWIEANLSDDSKDTWKKRGSVDYVVLLDWFSSAKDLLLGTTLRSLKDALFKWESKTVLRHEPLVLEGGYENWLLCYPQFTTNAKVTPPPRSRAEEVSVSLDFTYPSLEEPVPSKLPTQMPPPPIETNEKALLVTDQDEKLRLSTQPALAGPGAAPRAEASPIIQPAPATKSVPQVDRTKKPSVKLPEDHRIKSENTDQSGRVLSDRSTKPVFPSPTTMLTDEEKARIHQETALLMEKNKQEKELWDKQQKEQKEKLRREEQERKAGKTQDADERDSTENQHKAKDGQEKKDSKQTKTEDRELSADGAQEATGTQRQSKSEHEASDAKVPVEGKRCPTSEAQKRPADVSPASVSGELNAGKAQREPLTRARSEEMGRIVPGLPLGWAKFLDPITGTFRYYHSPTNTVHMYPPEMAPSSAPPSTPPTHKVKPQVPAERDREPSKLKRSYSSPDITQALQEEEKRRPAVTPMVNRENKPPCYPKAEISRLSASQIRNLNPVFGGSGPALTGLRNLGNTCYMNSILQCLCNAPHLADYFNRNCYQDDINRSNLLGHKGEVAEEFGIIMKALWTGQYRYISPKDFKVTIGKINDQFAGSSQQDSQELLLFLMDGLHEDLNKADNRKRHKEENNEHLDDLQAAEHAWQKHKQLNESIIVALFQGQFKSTVQCLTCRRRSRTFEAFMYLSLPLASTSKCTLQDCLRLFSKEEKLTDNNRFYCSHCRARRDSLKKIEIWKLPPVLLVHLKRFSYDGRWKQKLQTSVDFPLENLDLSQYVIGPKNSLKKYNLFSVSNHYGGLDGGHYTAYCKNAARQRWFKFDDHEVSDISVSSVRSSAAYILFYTSLGPRITDVAT
B1: the binding entry is given as “binds”.

The values are drawn from article PMC6443784.
